We go through one substance from paper PMC9780334.

By UniProt entry, the sequences of proteins in these tests, tags left out.
UniProt P18760: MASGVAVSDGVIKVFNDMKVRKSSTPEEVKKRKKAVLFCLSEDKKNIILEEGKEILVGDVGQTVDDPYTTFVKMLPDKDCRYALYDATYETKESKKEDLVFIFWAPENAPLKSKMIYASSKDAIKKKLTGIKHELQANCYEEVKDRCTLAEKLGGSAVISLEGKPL

The target in assay [1] is T1, MRTF-A (myocardin-related transcription factor A), endogenous (mouse (endogenous in C2C12)) (UniProt Q8K4J6).
T1 sequence: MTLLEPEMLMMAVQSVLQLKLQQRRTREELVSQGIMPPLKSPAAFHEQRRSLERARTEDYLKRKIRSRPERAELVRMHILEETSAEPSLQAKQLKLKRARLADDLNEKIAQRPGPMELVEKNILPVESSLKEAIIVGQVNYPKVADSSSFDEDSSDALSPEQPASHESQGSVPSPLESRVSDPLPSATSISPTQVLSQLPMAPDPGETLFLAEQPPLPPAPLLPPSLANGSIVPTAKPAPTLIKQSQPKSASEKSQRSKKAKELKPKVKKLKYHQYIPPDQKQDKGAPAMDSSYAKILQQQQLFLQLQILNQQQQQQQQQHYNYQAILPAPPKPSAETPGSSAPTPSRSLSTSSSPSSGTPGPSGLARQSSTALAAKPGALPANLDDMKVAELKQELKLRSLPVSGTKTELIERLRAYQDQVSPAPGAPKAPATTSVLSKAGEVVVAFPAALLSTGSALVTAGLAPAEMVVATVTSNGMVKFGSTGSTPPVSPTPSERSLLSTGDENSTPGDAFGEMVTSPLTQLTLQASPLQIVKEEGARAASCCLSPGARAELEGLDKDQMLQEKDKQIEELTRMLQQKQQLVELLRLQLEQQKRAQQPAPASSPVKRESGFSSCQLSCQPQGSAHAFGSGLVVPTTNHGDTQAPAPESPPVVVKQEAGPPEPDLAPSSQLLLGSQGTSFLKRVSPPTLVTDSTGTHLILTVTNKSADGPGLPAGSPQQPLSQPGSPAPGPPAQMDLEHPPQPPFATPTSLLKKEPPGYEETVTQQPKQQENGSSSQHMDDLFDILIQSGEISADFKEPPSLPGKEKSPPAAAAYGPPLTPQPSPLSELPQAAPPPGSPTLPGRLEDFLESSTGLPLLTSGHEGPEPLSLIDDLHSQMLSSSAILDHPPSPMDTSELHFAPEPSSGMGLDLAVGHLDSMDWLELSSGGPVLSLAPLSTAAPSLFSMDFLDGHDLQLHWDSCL
The assay is described as follows: proximity ligation; Duolink in situ PLA on C2-WT and C2-H222P cells on glass coverslips; anti-MRTF-A and anti-phospho(T25)-cofilin-1 primary antibodies overnight at 4 °C.

Assay [2] deals with T1, MRTF-A (myocardin-related transcription factor A), endogenous (mouse (endogenous in C2C12)). The assay is described as follows: co-IP; extracts of C2-WT and C2-H222P cells (not transfected); immunoprecipitated with MRTF-A antibody, protein G-Sepharose; lysis buffer 50 mM Tris-HCl pH 7.5, 0.15 M NaCl, 1 mM EDTA, 1% NP-40; 4 °C; immunoblot. For orientation: In western blotting, separated proteins are transferred to a membrane and probed.

These are yes or no findings as the source states them, for the method shown. Binding seen in cells or lysates may run through a third protein. Some results given as binding are weak or reduced against the parent protein; the word gives no strength.

Turning to “phospho(T25)-cofilin-1 (cofilin-1 phosphorylated on threonine 25) (from UniProt P18760 1-166)”, the binding result in assay [1] and in assay [2] was “binds” each time.
